Laboratory results reported in paper PMC5542435.
Results are given in words; binding and its absence hold for the method and conditions named. Binding seen in cells or lysates may run through a third protein. These calls come from enrichment with a bait or labelling near it, and not all partners need be listed. Tags and fused reporters may be left off the sequences shown.

T1: FliP-3×FLAG (chromosomally encoded, expressed from the native fliP locus) (S. enterica serovar Typhimurium LT2) (UniProt P54700)
T1 sequence: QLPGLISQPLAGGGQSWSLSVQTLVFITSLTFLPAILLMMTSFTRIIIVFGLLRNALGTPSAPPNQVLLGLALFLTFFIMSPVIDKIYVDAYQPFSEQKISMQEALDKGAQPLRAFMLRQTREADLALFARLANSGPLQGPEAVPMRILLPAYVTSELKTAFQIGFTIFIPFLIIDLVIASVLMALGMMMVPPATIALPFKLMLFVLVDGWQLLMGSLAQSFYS

T2: FliP-3×FLAG (chromosomally encoded, expressed from the native fliP locus) (S. enterica serovar Typhimurium LT2), P54700
T2 chain: T1 sequence

B1: FliR (untagged, endogenous in S. Typhimurium) (protein, UniProt P54702 1-264)
chain: MIQVTSEQWLYWLHLYFWPLLRVLALISTAPILSERAIPKRVKLGLGIMITLVIAPSLPANDTPLFSIAALWLAMQQILIGIALGFTMQFAFAAVRTAGEFIGLQMGLSFATFVDPGSHLNMPVLARIMDMLAMLLFLTFNGHLWLISLLVDTFHTLPIGSNPVNSNAFMALARAGGLIFLNGLMLALPVITLLLTLNLALGLLNRMAPQLSIFVIGFPLTLTVGIMLMAALMPLIAPFCEHLFSEIFNLLADIVSEMPINNNP
B2: FliG (endogenous in S. Typhimurium), P0A1J9 1-331 (protein)
chain: MSNLSGTDKSVILLMTIGEDRAAEVFKHLSTREVQALSTAMANVRQISNKQLTDVLSEFEQEAEQFAALNINANEYLRSVLVKALGEERASSLLEDILETRDTTSGIETLNFMEPQSAADLIRDEHPQIIATILVHLKRSQAADILALFDERLRHDVMLRIATFGGVQPAALAELTEVLNGLLDGQNLKRSKMGGVRTAAEIINLMKTQQEEAVITAVREFDGELAQKIIDEMFLFENLVDVDDRSIQRLLQEVDSESLLIALKGAEPPLREKFLRNMSQRAADILRDDLANRGPVRLSQVENEQKAILLIVRRLAETGEMVIGSGEDTYV

Columns and labels:
[1] = target: T1, FliP-3×FLAG (chromosomally encoded, expressed from the native fliP locus) (S. enterica serovar Typhimurium LT2); experiment: affinity purification with mass spectrometry; FLAG pull down of chromosomal FliP-3×FLAG from crude membranes of a rod− (ΔflgBC) strain, 0.5% DDM, anti-FLAG M2 affinity gel 4 h at 4°C in PBS with 0.1% DDM, eluted with FLAG peptide; BN-PAGE separation and LC-MS/MS of bands
[2] = target: T2, FliP-3×FLAG (chromosomally encoded, …); experiment: as above; conditions: remark: other sources report otherwise

Row | Molecule | binding [1] | binding [2]
1 | FliO (untagged, endogenous in S. Typhimurium) (from UniProt A0A2X4T7I8) | binds | –
2 | B1 | binds | –
3 | B2 | – | binds
